Data: patent US6808893
Results are given in words; binding and its absence hold for the method and conditions named. For some assays here: Binding seen in cells or lysates may run through a third protein. Some results given as binding are weak or reduced against the parent protein; the word gives no strength. One block for each substance: values may come before it.

Sequences of proteins named here, by UniProt entry; tags and fusion partners are left off. A change or cut given only in a name is not applied to a line headed by its entry.
UniProt P04386: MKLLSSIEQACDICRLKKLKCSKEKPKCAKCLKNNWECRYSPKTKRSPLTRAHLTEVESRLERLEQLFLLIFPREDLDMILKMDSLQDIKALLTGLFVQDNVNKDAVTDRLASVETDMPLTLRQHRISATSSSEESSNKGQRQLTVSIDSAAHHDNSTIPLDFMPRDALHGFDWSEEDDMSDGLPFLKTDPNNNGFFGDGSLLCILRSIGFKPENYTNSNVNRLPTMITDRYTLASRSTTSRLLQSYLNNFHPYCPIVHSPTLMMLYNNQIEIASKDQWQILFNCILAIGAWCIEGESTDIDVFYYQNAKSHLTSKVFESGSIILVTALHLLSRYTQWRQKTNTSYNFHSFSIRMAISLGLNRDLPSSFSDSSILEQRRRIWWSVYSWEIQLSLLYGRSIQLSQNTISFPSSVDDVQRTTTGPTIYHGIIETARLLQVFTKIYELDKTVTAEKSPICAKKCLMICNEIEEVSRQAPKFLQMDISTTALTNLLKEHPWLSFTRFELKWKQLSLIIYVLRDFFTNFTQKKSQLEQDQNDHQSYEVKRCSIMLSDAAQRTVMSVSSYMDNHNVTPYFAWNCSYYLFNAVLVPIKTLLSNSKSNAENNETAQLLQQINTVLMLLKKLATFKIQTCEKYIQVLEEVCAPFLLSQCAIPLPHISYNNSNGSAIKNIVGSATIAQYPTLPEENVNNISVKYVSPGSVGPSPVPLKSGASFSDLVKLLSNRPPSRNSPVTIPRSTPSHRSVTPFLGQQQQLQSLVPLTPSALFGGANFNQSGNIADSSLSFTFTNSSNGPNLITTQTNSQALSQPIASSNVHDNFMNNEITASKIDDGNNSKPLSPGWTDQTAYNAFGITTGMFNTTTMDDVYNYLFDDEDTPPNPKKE
UniProt Q63686: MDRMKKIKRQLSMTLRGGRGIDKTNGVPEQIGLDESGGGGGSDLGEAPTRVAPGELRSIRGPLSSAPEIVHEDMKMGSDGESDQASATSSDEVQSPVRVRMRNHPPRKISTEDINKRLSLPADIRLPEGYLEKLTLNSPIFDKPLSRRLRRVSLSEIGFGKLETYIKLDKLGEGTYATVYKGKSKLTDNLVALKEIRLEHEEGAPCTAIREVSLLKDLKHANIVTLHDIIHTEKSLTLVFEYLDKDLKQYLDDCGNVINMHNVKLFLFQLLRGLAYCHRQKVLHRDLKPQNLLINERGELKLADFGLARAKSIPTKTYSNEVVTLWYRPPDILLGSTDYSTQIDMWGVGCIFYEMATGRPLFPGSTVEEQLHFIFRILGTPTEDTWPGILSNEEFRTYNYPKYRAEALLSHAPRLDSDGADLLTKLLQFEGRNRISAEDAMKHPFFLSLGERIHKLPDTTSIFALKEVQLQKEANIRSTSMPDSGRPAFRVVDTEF
UniProt O15085: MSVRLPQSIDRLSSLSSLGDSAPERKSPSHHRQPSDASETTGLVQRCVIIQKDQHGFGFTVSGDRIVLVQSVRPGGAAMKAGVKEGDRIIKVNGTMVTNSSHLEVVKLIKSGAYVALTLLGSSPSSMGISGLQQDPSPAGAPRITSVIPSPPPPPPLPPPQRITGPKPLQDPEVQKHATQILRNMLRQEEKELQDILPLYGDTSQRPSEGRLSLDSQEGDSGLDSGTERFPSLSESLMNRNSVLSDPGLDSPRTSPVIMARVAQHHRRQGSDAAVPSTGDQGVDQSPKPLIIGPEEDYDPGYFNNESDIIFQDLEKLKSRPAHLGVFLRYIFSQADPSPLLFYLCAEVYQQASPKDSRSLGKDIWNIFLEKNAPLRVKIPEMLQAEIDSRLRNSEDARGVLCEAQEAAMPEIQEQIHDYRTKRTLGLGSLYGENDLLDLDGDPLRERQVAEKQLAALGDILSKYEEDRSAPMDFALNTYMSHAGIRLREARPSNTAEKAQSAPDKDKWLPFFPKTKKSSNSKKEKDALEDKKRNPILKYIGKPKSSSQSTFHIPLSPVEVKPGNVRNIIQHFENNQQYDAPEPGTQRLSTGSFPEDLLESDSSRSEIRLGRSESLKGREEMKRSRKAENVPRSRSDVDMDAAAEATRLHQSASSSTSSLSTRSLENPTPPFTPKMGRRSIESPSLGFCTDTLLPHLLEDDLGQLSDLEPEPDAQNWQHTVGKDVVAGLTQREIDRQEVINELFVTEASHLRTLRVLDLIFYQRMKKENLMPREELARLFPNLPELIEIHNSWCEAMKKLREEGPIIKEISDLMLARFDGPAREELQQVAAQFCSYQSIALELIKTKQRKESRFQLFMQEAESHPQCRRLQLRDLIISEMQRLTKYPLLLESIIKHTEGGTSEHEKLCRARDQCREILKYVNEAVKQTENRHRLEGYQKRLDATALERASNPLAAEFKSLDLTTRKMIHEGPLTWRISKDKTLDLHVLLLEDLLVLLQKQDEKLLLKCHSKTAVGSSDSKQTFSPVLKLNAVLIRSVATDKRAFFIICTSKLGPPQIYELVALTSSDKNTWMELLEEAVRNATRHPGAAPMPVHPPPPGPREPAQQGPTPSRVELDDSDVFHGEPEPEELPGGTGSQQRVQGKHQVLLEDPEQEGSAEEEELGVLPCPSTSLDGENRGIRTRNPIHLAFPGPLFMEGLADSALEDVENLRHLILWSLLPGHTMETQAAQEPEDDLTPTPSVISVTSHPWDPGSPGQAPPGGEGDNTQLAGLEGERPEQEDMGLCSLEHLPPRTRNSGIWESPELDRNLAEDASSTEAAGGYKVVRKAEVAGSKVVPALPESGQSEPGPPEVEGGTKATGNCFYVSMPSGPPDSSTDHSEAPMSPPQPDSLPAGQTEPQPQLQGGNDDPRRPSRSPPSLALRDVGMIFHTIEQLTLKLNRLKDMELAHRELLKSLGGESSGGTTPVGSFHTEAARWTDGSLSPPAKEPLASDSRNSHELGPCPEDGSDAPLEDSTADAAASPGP
UniProt Q9ES67: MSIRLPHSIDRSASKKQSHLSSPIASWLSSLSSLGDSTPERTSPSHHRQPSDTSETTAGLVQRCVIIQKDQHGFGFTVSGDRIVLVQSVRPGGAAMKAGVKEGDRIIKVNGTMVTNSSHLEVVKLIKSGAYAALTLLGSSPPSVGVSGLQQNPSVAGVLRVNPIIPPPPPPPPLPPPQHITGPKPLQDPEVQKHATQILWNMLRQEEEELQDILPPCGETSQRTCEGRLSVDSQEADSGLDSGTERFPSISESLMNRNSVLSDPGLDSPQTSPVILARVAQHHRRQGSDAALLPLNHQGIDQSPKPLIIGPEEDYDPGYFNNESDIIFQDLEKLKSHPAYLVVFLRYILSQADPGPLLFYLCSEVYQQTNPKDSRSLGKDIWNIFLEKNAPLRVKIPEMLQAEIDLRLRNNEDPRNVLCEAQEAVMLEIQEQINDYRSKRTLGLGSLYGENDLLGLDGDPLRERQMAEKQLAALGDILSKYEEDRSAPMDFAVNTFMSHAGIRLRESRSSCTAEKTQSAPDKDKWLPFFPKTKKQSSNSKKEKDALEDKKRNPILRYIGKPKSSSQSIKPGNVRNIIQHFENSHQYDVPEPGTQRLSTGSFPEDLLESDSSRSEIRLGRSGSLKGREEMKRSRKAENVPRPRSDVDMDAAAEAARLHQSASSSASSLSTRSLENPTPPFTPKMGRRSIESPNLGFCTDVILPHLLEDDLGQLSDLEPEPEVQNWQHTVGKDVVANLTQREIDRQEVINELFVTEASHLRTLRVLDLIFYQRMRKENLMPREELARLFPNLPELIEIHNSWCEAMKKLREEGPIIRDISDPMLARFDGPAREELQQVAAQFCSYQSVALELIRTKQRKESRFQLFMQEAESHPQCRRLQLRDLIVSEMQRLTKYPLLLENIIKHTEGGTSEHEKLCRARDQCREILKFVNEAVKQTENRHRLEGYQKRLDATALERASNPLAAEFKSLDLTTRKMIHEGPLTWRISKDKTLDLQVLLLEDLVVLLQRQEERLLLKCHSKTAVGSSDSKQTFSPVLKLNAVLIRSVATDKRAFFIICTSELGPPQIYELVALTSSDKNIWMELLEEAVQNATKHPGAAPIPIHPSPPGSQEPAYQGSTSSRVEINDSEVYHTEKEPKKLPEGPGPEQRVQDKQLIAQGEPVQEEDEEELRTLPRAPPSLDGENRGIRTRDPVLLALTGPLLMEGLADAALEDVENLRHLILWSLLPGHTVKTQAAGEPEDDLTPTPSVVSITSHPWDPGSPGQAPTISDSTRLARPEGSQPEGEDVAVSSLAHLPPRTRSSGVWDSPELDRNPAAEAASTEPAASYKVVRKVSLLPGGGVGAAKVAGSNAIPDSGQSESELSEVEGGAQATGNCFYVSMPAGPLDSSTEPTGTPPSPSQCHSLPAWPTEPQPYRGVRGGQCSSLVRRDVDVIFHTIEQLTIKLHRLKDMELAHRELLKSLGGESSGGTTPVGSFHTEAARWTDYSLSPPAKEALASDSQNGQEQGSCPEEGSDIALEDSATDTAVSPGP

Columns and labels:
[1] = molecular target: T1, EAAT4, full-length glutamate transporter (rat) (UniProt O35921); test: co-immunoprecipitation
T1 sequence (looked up): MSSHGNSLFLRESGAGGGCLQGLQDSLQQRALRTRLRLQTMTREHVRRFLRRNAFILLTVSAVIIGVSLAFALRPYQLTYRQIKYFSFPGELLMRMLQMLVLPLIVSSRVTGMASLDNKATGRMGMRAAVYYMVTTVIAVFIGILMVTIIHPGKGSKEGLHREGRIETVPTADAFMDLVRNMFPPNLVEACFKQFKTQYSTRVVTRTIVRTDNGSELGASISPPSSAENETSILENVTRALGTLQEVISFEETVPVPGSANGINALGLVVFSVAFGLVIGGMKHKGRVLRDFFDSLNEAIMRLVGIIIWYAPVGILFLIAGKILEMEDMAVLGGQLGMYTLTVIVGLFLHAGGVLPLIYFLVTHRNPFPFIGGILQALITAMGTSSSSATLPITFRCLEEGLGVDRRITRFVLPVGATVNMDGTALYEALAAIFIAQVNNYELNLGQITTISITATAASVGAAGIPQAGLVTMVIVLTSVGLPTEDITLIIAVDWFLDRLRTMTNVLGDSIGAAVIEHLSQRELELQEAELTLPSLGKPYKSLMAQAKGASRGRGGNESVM

[2] = molecular target: T1, EAAT4, full-length glutamate transporter (rat); test: summary of yeast two-hybrid and co-immunoprecipitation
[3] = molecular target: T1, EAAT4, full-length glutamate transporter (rat); test: co-immunoprecipitation from neonatal rat cerebellum, PCTAIRE-1 western blot
[4] = molecular target: T1, EAAT4, full-length glutamate transporter (rat); test: co-immunoprecipitation with anti-c-myc antibody from EAAT4 expressing HEK cells, EAAT4 western blot
[5] = molecular target: T2, EAAT4 amino terminus bait (initial 60 amino acids of EAAT4 in pGBKT7) (rat) (UniProt P04386+O35921); test: yeast two-hybrid
[6] = molecular target: T2, EAAT4 amino terminus bait (initial 60 amino acids of EAAT4 in pGBKT7) (rat); test: yeast two-hybrid, initial 60 amino acids of EAAT4 as bait against rat brain cDNA library
[7] = molecular target: T1, EAAT4, full-length glutamate transporter (rat); test: co-immunoprecipitation in heterologous cells
[8] = molecular target: T1, EAAT4, full-length glutamate transporter (rat); test: co-immunoprecipitation from HEK-rEAAT4 cells with amino-terminal EAAT4 antibodies, anti-c-myc blot; also the reverse with anti-c-myc antibody
[9] = molecular target: T1, EAAT4, full-length glutamate transporter (rat); test: co-immunoprecipitation from solubilized rat brain

binding [4]: binds
Substance: myc-tagged PCTAIRE-1a (from UniProt Q63686 1-496) (enzyme)

binding [5]: binds
binding [6]: binds
Substance: PCTAIRE-1 yeast two-hybrid clone (>95% homology to the final 201 amino acids of rat PCTAIRE-1, in pACT2) (from UniProt Q63686 296-496) (enzyme)

binding [7]: binds
Substance: KIAA0380 (a close homolog of GTRAP4-48) (from UniProt O15085 1-1522)

The next lines start with the substance.

Substance: PCTAIRE-1, native, of rat cerebellum (doublet of 62 and 68 kDa) (from UniProt Q63686 1-496) (enzyme)
binding [1]: binds
binding [2]: binds
binding [3]: binds

Substance: myc-tagged full-length GTRAP4-41 (from UniProt Q9QWN8 2-2388)
binding [7]: binds
binding [8]: binds

Substance: GTRAP4-48 (glutamate transporter 4 associated protein), full-length (from UniProt Q9ES67 1-1527)
binding [9]: binds

Substance: myc-tagged PCTAIRE-1b (from UniProt Q63686 65-496) (enzyme)
binding [4]: binds

Substance: myc-tagged full-length GTRAP4-48 (from UniProt Q9ES67 1-1527)
binding [7]: binds
binding [8]: binds

Substance: GTRAP4-41 (glutamate transporter 4 associated protein), full-length (from UniProt Q9QWN8 2-2388)
binding [9]: binds
